# In patent EP0286418A1, “Anti-retroviral agents and delivery systems for the same” (priority 1987, dated 1988):
# At least one structure is not confirmed: it was looked up by name or label, or the drawing left a doubt.
# Assay: leakage from liposomes at 37°C in DMEM-GG-FCS
# Format: physicochemical
# Procedure: The release of liposome contents as a function of time was assessed by centrifugal elution of free ddCTP through Centrifree filters (Amicon, Danvers, Mass., USA). Typically, 100 microliters of suspension was centrifuged at 1500 G for about 10 minutes, 100 microliters additional phosphate-buffered saline was added, and the filter was again spun for about 10 minutes. Pooled filtrate was counted for ³H-ddCTP to determine released drug, and the filter itself was similarly counted to establish the mass balance. Very little ¹⁴C-cholesteryl oleate was ever found in the filtrate, indicating that liposomal lipid was not passing through the filter. […] Leakage tests were also conducted under conditions mimicking those of the viral experiments infra, i.e., in tissue culture plates with 96 flat-bottom wells (Costar, Cambridge, Mass., USA) at 37°C in a CO₂ incubator in Dulbecco's Minimal Eagles Medium supplemented with gentamycin, glutamine, and 10% fetal calf serum (DMEM-GG-FCS). […] In contrast, 50% of the ddC was released within 1 hour, and 95% within 4 hours.
compound,measurement,setting,value
"Nc1ccn([C@H]2CC[C@@H](CO)O2)c(=O)n1 [ddC, dideoxycytidine, reference compound]",time within which 50% was released from liposomes,DMEM-GG-FCS,≤ 1 h
same,time within which 95% was released from liposomes,DMEM-GG-FCS,≤ 4 h
same,% of total drug in liposomes,"absence of cells, 0 h",58.5%
same,% of total drug in liposomes,"absence of cells, 0.16 h",58.7%
same,% of total drug in liposomes,"absence of cells, 0.32 h",48.7%
same,% of total drug in liposomes,"absence of cells, 1 h",30.3%
same,% of total drug in liposomes,"absence of cells, 2 h",23.0%
same,% of total drug in liposomes,"absence of cells, 4 h",8.6%
same,% of total drug in liposomes,"absence of cells, 24 h",7.5%
same,% of total drug in liposomes,"absence of cells, 48 h",6.4%
same,% of total drug in liposomes,"with adherent human monocytes, 0 h",55.7%
same,% of total drug in liposomes,"with adherent human monocytes, 0.16 h",60.4%
same,% of total drug in liposomes,"with adherent human monocytes, 0.32 h",50.9%
same,% of total drug in liposomes,"with adherent human monocytes, 1 h",32.2%
same,% of total drug in liposomes,"with adherent human monocytes, 2 h",19.2%
same,% of total drug in liposomes,"with adherent human monocytes, 4 h",14.4%
same,% of total drug in liposomes,"with adherent human monocytes, 24 h",9.5%
same,% of total drug in liposomes,"with adherent human monocytes, 48 h",4.8%
same,% of total drug in liposomes,"with adherent human monocytes, 72 h",8.0%
